The list shows a part of the results. Most entries show no effect beyond the scatter of the controls.

By UniProt entry, the sequences of proteins in these tests, tags left out. Where a name states a change or a piece, a line headed by the entry shows the natural chain unless it says otherwise.
UniProt Q8NCN4: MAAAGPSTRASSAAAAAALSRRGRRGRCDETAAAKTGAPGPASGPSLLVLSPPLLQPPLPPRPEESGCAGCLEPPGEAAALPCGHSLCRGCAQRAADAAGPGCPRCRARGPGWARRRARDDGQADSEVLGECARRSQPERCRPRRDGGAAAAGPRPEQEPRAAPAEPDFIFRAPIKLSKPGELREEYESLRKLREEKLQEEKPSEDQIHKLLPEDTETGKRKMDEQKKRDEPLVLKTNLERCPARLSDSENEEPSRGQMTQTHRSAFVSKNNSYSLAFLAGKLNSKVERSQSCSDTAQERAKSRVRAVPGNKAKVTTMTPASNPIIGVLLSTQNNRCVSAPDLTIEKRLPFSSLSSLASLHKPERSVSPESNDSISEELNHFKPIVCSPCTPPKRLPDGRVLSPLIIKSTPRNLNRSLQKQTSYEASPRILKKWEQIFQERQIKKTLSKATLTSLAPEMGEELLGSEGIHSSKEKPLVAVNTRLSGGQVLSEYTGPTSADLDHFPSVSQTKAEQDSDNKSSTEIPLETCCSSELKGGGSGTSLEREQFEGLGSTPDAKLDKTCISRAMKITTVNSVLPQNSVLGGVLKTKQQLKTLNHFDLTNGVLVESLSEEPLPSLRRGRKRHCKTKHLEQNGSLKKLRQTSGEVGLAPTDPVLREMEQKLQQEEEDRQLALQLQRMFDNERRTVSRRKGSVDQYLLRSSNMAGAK
UniProt Q8NAV1: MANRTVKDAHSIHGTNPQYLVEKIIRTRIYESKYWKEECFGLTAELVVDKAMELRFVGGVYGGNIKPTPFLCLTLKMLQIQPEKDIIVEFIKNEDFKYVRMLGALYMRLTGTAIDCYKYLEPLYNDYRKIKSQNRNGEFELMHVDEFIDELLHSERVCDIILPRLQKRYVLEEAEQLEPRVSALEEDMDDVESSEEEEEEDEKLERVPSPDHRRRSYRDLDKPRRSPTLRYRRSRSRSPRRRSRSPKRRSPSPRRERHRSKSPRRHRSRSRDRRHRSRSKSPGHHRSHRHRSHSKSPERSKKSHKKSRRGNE
UniProt Q8TBB5: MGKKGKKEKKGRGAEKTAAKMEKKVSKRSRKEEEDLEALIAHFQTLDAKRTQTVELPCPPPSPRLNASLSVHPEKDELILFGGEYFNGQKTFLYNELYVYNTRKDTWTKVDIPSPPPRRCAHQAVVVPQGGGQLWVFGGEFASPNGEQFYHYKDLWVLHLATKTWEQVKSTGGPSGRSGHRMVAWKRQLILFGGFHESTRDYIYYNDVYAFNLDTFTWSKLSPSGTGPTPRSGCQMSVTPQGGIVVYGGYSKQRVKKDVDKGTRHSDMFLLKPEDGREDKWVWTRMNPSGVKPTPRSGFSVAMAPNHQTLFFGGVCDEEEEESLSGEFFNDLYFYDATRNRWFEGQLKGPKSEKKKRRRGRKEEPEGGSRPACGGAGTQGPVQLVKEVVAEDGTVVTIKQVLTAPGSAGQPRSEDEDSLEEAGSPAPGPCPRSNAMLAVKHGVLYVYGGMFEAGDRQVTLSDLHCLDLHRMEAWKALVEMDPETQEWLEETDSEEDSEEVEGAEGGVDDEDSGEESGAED
UniProt Q8TB40: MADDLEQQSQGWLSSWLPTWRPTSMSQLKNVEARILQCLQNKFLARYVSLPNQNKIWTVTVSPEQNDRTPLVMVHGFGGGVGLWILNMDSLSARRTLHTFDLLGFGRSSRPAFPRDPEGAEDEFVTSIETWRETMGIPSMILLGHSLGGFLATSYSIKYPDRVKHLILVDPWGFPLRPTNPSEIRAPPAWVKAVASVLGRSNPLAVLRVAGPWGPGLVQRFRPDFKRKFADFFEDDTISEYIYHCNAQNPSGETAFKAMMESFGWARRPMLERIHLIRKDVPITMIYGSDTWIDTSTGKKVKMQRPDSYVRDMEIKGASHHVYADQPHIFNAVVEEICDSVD
UniProt Q8NB78: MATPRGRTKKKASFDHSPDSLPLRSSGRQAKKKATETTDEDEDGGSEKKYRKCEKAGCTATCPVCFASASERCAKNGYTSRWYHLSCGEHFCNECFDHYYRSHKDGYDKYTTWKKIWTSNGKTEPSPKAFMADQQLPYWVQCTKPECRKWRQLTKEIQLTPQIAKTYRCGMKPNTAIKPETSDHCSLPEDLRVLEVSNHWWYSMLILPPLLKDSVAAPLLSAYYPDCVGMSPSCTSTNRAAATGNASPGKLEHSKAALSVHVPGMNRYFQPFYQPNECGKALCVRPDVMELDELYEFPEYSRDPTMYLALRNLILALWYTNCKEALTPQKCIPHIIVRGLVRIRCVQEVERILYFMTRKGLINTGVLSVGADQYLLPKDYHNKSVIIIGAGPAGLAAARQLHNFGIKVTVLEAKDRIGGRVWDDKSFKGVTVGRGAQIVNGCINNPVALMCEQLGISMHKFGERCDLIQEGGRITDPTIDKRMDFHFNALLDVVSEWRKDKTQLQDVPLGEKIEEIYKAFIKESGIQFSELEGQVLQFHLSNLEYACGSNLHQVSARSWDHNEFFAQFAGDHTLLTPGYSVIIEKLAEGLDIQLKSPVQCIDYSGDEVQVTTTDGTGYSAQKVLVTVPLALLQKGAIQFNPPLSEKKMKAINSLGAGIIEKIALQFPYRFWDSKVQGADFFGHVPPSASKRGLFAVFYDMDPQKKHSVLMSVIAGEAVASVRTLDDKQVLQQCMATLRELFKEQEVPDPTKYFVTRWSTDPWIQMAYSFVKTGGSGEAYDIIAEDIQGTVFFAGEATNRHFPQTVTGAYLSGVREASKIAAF
UniProt Q8N5F7: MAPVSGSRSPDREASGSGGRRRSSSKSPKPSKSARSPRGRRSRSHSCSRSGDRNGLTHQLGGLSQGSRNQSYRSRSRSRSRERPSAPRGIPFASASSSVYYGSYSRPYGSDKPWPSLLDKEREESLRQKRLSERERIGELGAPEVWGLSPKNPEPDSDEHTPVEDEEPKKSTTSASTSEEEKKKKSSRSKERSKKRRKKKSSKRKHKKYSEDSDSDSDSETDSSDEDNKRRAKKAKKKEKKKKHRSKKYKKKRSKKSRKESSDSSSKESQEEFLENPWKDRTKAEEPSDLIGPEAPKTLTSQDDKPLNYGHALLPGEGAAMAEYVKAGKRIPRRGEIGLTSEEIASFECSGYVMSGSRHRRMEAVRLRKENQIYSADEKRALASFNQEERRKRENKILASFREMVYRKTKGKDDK
UniProt Q8N5M9: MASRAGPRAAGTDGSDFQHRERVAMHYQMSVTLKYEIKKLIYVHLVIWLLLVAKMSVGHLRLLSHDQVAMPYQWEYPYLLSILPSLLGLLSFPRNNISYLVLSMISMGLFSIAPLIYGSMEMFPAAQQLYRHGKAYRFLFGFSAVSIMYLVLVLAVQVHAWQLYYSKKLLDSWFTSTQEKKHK
UniProt Q8NAP3: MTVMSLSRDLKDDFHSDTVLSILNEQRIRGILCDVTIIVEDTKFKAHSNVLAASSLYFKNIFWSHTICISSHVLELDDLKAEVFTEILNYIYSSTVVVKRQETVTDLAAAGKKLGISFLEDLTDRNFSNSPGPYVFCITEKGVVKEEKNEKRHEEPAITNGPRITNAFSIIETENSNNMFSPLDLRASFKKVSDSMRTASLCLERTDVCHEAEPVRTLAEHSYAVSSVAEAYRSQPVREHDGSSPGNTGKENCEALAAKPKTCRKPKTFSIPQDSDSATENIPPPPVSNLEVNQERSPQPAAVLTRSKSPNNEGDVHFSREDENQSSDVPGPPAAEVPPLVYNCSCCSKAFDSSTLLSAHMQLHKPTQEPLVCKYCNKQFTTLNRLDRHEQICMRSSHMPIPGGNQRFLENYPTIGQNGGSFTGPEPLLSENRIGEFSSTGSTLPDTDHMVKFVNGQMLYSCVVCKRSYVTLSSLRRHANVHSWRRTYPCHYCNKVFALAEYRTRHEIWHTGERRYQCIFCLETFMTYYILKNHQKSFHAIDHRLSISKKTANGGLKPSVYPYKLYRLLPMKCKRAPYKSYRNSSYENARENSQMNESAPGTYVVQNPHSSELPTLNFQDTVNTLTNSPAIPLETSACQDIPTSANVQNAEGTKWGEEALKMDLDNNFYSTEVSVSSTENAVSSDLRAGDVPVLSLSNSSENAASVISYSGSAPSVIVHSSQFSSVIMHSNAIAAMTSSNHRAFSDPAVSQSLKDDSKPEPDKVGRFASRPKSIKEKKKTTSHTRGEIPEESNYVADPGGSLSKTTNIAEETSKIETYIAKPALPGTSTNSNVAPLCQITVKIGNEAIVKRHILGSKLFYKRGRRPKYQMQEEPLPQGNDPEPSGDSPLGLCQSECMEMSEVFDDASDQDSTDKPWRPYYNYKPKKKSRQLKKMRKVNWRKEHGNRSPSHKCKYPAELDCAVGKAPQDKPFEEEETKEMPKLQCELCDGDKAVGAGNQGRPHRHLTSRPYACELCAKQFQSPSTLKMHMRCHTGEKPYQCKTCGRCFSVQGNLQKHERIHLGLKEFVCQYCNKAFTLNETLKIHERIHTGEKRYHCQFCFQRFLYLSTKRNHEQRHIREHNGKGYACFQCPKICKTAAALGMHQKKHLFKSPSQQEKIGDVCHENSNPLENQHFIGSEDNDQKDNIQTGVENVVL
UniProt Q8N543: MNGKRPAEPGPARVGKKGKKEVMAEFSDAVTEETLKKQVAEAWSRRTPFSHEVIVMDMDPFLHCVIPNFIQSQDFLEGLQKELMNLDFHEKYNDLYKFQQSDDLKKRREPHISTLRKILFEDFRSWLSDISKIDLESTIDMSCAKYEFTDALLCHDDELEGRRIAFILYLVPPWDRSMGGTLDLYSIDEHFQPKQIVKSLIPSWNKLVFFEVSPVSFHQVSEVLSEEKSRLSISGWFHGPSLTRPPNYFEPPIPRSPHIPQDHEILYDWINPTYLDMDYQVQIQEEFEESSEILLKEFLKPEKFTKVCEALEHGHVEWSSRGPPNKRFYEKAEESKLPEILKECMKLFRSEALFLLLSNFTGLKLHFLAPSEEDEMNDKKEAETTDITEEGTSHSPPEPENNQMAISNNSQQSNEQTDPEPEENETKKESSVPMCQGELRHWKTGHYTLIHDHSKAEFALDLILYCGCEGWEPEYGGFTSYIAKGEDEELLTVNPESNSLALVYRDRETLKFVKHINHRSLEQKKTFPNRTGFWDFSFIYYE
UniProt Q8NER1, whole entry: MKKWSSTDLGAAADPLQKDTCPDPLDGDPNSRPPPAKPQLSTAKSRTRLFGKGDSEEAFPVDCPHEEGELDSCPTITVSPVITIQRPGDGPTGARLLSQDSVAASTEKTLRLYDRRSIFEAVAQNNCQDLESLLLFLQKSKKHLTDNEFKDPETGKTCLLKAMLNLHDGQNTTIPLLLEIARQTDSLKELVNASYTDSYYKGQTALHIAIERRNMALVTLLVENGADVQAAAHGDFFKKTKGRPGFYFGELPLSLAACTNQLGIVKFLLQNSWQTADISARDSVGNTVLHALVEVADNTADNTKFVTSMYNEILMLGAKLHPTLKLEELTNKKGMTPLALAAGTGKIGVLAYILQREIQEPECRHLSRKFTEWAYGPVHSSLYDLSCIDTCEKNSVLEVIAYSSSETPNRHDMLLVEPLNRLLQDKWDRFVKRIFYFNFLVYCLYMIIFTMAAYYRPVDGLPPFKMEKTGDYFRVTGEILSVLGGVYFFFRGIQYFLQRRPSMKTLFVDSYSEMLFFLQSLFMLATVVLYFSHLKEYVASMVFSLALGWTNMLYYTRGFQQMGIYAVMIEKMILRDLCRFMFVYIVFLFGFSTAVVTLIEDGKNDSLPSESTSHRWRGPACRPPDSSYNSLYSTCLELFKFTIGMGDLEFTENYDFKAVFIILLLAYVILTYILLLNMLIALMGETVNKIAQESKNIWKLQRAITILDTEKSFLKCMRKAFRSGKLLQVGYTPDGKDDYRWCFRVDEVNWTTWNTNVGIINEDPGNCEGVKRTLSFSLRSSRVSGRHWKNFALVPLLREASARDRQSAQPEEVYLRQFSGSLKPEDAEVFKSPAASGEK
UniProt Q8NHV4, whole entry: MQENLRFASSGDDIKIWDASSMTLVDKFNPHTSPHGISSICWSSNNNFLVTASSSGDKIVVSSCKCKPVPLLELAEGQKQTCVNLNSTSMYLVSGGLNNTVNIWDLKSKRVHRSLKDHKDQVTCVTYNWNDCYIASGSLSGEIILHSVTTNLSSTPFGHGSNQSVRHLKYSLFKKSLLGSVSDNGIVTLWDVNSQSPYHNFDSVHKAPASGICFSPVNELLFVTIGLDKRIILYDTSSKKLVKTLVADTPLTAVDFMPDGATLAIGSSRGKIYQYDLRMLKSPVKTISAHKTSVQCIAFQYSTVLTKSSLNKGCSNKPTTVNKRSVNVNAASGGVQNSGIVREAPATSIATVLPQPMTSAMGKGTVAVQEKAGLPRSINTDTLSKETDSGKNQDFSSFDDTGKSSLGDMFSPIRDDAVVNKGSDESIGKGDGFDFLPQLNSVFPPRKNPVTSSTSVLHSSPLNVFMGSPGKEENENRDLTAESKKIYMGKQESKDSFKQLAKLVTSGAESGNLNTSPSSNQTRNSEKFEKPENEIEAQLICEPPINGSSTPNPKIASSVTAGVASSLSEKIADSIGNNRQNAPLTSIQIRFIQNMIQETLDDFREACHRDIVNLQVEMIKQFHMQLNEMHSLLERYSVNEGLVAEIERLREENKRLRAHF

These results are taken from the supplement of paper PMC12819154, “High-throughput peptide-centric local stability assay extends protein–ligand identification to membrane proteins, tissues and bacteria” (Nature Structural & Molecular Biology, 2025).

Compound in this assay: CN[C@@H]1C[C@H]2O[C@@](C)([C@@H]1OC)n1c3ccccc3c3c4c(c5c6ccccc6n2c5c31)C(=O)NC4 [staurosporine]
The experiment in a line: log2 fold change of tryptic peptide abundance, ligand vs vehicle (limited proteolysis) (log2 ratio); higher = more trypsin-susceptible (destabilized). To be noted: ligand concentration: 20 uM; sample: K562 cleared lysate; digestion: 4 min, 22 C (HT-PELSA RT4min, Orbitrap Astral).
On to “UniProt Q8TAB5 (peptide sequence: SSSPEPACGTPR, peptide start residue: 124)”, for which the log2 fold change stood at 0.486.

“FAM76A (peptide sequence: AGHQEKEQYSR, peptide start residue: 152) (UniProt Q8TAV0)”: the log2 fold change was -0.973.

For “ANKLE1 (peptide sequence: HLPVSTVSDLELLK, peptide start residue: 355) (UniProt Q8NAG6)”, the log2 fold change is 0.227.

Take “PPFIBP2 (peptide sequence: LSGATPNGEAAK, peptide start residue: 429) (UniProt Q8ND30)”: the log2 fold change is -0.178.

Regarding “ZCRB1 (peptide sequence: SKCYECGESGHLSYACPK, peptide start residue: 105) (UniProt Q8TBF4)”, the log2 fold change was -0.444.

With “UniProt Q8N9L9 (peptide sequence: IKVAFSGLVDIVDIR, peptide start residue: 282)”, the log2 fold change is -0.425.

Regarding “RNF169 (peptide sequence: LSDSENEEPSR, peptide start residue: 246) (UniProt Q8NCN4)”, the log2 fold change came out at 0.774.

As to “PRPF38A (peptide sequence: RYVLEEAEQLEPR, peptide start residue: 168) (UniProt Q8NAV1)”, the log2 fold change is -0.24.

For the target “SIRT6 (peptide sequence: GPHGVWTMEER, peptide start residue: 66) (UniProt Q8N6T7)”, the log2 fold change came out at 0.554.

On to “WDR19 (peptide sequence: IYLDHLNNPEK, peptide start residue: 930) (UniProt Q8NEZ3)”, for which the log2 fold change stood at 0.287.

As to “PSMA8 (peptide sequence: LTVEDPVTVEYITR, peptide start residue: 96) (UniProt Q8TAA3)”, the log2 fold change is -0.153.

For “KLHDC4 (peptide sequence: LSPSGTGPTPR, peptide start residue: 221) (UniProt Q8TBB5)”, the log2 fold change was -0.405.

On to “ABHD4 (peptide sequence: ILQCLQNK, peptide start residue: 35) (UniProt Q8TB40)”, for which the log2 fold change is -0.158.

In the case of “PDPR (peptide sequence: RKDDMELSDLHGK, peptide start residue: 867) (UniProt Q8NCN5)”, the log2 fold change was -0.0684.

As for “UniProt Q8NB78 (peptide sequence: AAATGNASPGKLEHSK, peptide start residue: 240)”, the log2 fold change came out at 0.256.

As for “NKAP (peptide sequence: NGLTHQLGGLSQGSR, peptide start residue: 54) (UniProt Q8N5F7)”, the log2 fold change is -0.0708.

As for “UniProt Q8NE31 (peptide sequence: LLEVLISK, peptide start residue: 1008)”, the log2 fold change is -0.294.

On to “UniProt Q8N782 (peptide sequence: HHIGDFSFQEIEK, peptide start residue: 80)”, for which the log2 fold change was -0.373.

Regarding “JAGN1 (peptide sequence: AAGTDGSDFQHR, peptide start residue: 9) (UniProt Q8N5M9)”, the log2 fold change was -0.209.

For “UniProt Q8NAP3 (peptide sequence: AFSDPAVSQSLK, peptide start residue: 743)”, the log2 fold change stood at 0.415.

Turning to “UniProt Q8N823 (peptide sequence: AFNCSSLLR, peptide start residue: 239)”, the log2 fold change is -0.23.

Regarding “OGFOD1 (peptide sequence: RPAEPGPAR, peptide start residue: 5) (UniProt Q8N543)”, the log2 fold change was -0.163.

In the case of “UniProt Q8NER1 (peptide sequence: AITILDTEKSFLKCMR, peptide start residue: 703)”, the log2 fold change was determined as 0.198.

As for “PHC3 (peptide sequence: EDHLMSAMNIK, peptide start residue: 831) (UniProt Q8NDX5)”, the log2 fold change turned out to be 0.11.

For the target “UHMK1 (peptide sequence: YGPVVSLLVPK, peptide start residue: 354) (UniProt Q8TAS1)”, the log2 fold change is 0.165.

Turning to “ZFP62 (peptide sequence: SFNYTSLLSQHR, peptide start residue: 625) (UniProt Q8NB50)”, the log2 fold change was -0.315.

For the target “NEDD1 (peptide sequence: SSLGDMFSPIRDDAVVNK, peptide start residue: 404) (UniProt Q8NHV4)”, the log2 fold change is -0.147.

As for “SLC35B2 (peptide sequence: ASDEVPLAPR, peptide start residue: 88) (UniProt Q8TB61)”, the log2 fold change was determined as 0.0969.

As for “MEIOB (peptide sequence: NCMTATVISK, peptide start residue: 243) (UniProt Q8N635)”, the log2 fold change amounted to 0.459.
